# Results reported in PubChem BioAssay AID743255 (National Center for Advancing Translational Sciences (NCATS), 2014).
# Sequences of proteins named here, by UniProt entry; tags and fusion partners are left off. A change or cut given only in a name is not applied to a line headed by its entry.
# UniProt O94782: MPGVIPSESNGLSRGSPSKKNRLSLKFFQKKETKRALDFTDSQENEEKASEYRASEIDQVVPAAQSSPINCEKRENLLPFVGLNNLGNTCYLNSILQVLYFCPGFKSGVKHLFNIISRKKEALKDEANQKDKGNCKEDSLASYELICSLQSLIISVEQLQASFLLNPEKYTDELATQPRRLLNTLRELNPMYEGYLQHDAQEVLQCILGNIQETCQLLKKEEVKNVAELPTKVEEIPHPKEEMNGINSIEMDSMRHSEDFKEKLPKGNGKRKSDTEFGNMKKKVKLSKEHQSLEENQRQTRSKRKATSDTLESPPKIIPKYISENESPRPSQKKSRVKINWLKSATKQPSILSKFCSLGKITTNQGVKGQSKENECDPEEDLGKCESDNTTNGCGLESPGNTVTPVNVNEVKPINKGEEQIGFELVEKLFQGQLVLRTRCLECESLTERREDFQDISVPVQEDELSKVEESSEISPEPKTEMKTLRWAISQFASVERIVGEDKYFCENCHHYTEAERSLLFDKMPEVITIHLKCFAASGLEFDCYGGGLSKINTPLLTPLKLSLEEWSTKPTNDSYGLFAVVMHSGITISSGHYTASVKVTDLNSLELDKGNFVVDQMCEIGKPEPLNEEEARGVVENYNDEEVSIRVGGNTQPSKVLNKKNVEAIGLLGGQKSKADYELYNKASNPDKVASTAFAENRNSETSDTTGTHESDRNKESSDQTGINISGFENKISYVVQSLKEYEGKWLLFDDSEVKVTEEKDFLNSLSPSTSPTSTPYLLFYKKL
# About 910 (0.23%) of roughly 390,000 compounds were called active. Inconclusive means that the source gave no clear call. Such entries were picked first, then a sample of the others. Calls come from the whole dose curve; as a rule, active = well fitted inhibition curve with a large enough effect; inconclusive = small, poorly fitted or top-dose-only effect; inactive = no such curve, though single readings can be large or run the other way. A potency beside an inconclusive call is a rough fit, not a confirmed value.
# Target: Ubiquitin carboxyl-terminal hydrolase 1 (Homo sapiens) (UniProt O94782)
# Assay: Inhibitors of USP1/UAF1: Primary Screen; note: nearly all actives have a fitted effect of over 60% in size
# Conditions: recombinant USP1/UAF1, Ub-Rhodamine cleavage fluorescence; activity change, negative = inhibition: at 57.1 µM (top of the series)
# How it was run: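 Step one: compound is pinned into 1nM USP1/UAF1 in HEPES pH 7.8 buffer with TCEP. Step two: 15 min room-temperature incubation. Step three: Ub-Rho (150nM final) starts cleavage, tracked by fluorescence over six one-minute reads.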
# % is set by controls: 0 for no effect and ±100 for the full control effect; potency is the fitted concentration of half-maximal effect.
Compound,Potency,"activity change, negative = inhibition"
COC(=O)[C@@H]1C[C@H]2CC[C@H](O)C[C@H]2N1Cc1ccccc1OS(=O)(=O)c1ccc(C)cc1,"inconclusive: 50.1 µM [inhibitor, partial curve, poor fit]",
Cc1ccccc1NC(=O)C1CCCN1S(=O)(=O)c1cccc2cccnc12 (centres undefined),"inconclusive: 12.6 µM [inhibitor, partial curve, poor fit]",
CC1=NNC(=O)C1C(c1ccc(Cl)cc1)C(C#N)C#N (centres undefined),inactive,
CCC(=O)OC1(C)C(=O)C2=COC(c3ccc(OC)cc3)=CC2=C(Br)C1=O (centres undefined),active: 35.5 µM,
CCOC(=O)/C(C#N)=C\c1cc(C)n(-c2ccccc2)c1C,inactive,
COc1ccccc1C(=O)NCC(=O)NCCc1ccc(Cl)cc1,"inconclusive: 3.98 µM [inhibitor, single point]",
CC(=O)Nc1ccc(S(=O)(=O)NC2(C(F)(F)F)C(=O)Nc3c2c(=O)[nH]c(=O)n3Cc2cccnc2)cc1 (centres undefined),"inconclusive: 11.2 µM [inhibitor, partial curve, poor fit]",
CC1CCN(c2ccc3c(c2)S(=O)(=O)c2cccc(C(=O)O)c2C3=O)CC1,"inconclusive: 44.7 µM [inhibitor, partial curve]",
Cn1ncc(Br)c1C(=O)NC(=S)N1CCN(c2ccccn2)CC1,inactive,
CC(=O)N1C(=O)/C(=C2\SC(=S)N(NC(=O)c3ccc(O)cc3)C2=O)c2ccccc21,active: 3.98 µM,
C#CCOCCOCCOCCNc1nc(N2CCN(C(=O)Cn3cc(CCCN=C(N)N)nn3)CC2)nc(N2CCN(C(=O)[C@H](CCCCN)n3cc(CC(C)O)nn3)CC2)n1 (some centres undefined),inactive,
Cc1ccc(N2CC(NC(=O)C3CC3)CC2=O)cc1C (centres undefined),"inconclusive: 10 µM [inhibitor, partial curve, poor fit]",
COc1cc(O)cc2c1[C@@H]1Oc3c(ccc(O)c3CC=C(C)C)[C@@H]1CO2,"inconclusive: 7.94 µM [inhibitor, partial curve, poor fit]",
CN(c1ccccc1)c1nc(N)c([N+](=O)[O-])c(Nc2ccccc2F)n1,"inconclusive: 10 µM [inhibitor, partial curve, poor fit]",
Cc1cc(C)cc(N2C(=O)CCSC23C(=O)N(Cc2ccccc2)c2ccccc23)c1 (centres undefined),"inconclusive: 0.112 µM [inhibitor, full curve, poor fit]",
COc1ccc(-c2nc(-c3ccccc3)c(-c3ccc(F)cc3)[nH]2)c(OC)c1C,"inconclusive: 22.4 µM [inhibitor, partial curve]",
Cc1ccc(Cl)cc1NC(=O)Cn1ncc2c(C)n(Cc3ccccc3F)c(C)c2c1=O,"inconclusive: 1.12 µM [inhibitor, full curve, poor fit]",
CC(C)(C)NC(=O)c1ccc2nc(CCc3ccccc3)oc2c1,inactive,
O=C(Nc1cc(C(=O)Nc2ccccc2C(=O)O)cc(C(=O)Nc2ccccc2C(=O)O)c1)c1ccccc1,"inconclusive: 31.6 µM [inhibitor, partial curve]",
CCC(C)(O)C(=O)N[C@H]1CCCN1C(=O)/C=C/c1ccccc1 (some centres undefined),"inconclusive: 44.7 µM [inhibitor, partial curve]",
C=CCCCCCCCCC(=O)NN,"inconclusive: 31.6 µM [inhibitor, single point]",
Cc1cccc(CNC(=O)C2CCN(S(=O)(=O)c3ccc4c(c3)CCCN4C(=O)C3CCC3)CC2)c1,"inconclusive: 11.2 µM [inhibitor, single point]",

# Among those listed so far, these have a carbonyl joined to an NH by a bond outside any ring:
Compound,Potency,"activity change, negative = inhibition"
Cc1ccccc1NC(=O)C1CCCN1S(=O)(=O)c1cccc2cccnc12 (centres undefined),"inconclusive: 12.6 µM [inhibitor, partial curve, poor fit]",
COc1ccccc1C(=O)NCC(=O)NCCc1ccc(Cl)cc1,"inconclusive: 3.98 µM [inhibitor, single point]",
CC(=O)Nc1ccc(S(=O)(=O)NC2(C(F)(F)F)C(=O)Nc3c2c(=O)[nH]c(=O)n3Cc2cccnc2)cc1 (centres undefined),"inconclusive: 11.2 µM [inhibitor, partial curve, poor fit]",
Cn1ncc(Br)c1C(=O)NC(=S)N1CCN(c2ccccn2)CC1,inactive,
CC(=O)N1C(=O)/C(=C2\SC(=S)N(NC(=O)c3ccc(O)cc3)C2=O)c2ccccc21,active: 3.98 µM,
Cc1ccc(N2CC(NC(=O)C3CC3)CC2=O)cc1C (centres undefined),"inconclusive: 10 µM [inhibitor, partial curve, poor fit]",
Cc1ccc(Cl)cc1NC(=O)Cn1ncc2c(C)n(Cc3ccccc3F)c(C)c2c1=O,"inconclusive: 1.12 µM [inhibitor, full curve, poor fit]",
CC(C)(C)NC(=O)c1ccc2nc(CCc3ccccc3)oc2c1,inactive,
O=C(Nc1cc(C(=O)Nc2ccccc2C(=O)O)cc(C(=O)Nc2ccccc2C(=O)O)c1)c1ccccc1,"inconclusive: 31.6 µM [inhibitor, partial curve]",
CCC(C)(O)C(=O)N[C@H]1CCCN1C(=O)/C=C/c1ccccc1 (some centres undefined),"inconclusive: 44.7 µM [inhibitor, partial curve]",
C=CCCCCCCCCC(=O)NN,"inconclusive: 31.6 µM [inhibitor, single point]",
Cc1cccc(CNC(=O)C2CCN(S(=O)(=O)c3ccc4c(c3)CCCN4C(=O)C3CCC3)CC2)c1,"inconclusive: 11.2 µM [inhibitor, single point]",

# Looked up by structure from the entries so far (2):
Compound,Potency,"activity change, negative = inhibition"
C#CCOCCOCCOCCNc1nc(N2CCN(C(=O)Cn3cc(CCCN=C(N)N)nn3)CC2)nc(N2CCN(C(=O)[C@H](CCCCN)n3cc(CC(C)O)nn3)CC2)n1 (some centres undefined),inactive,
CC1=NNC(=O)C1C(c1ccc(Cl)cc1)C(C#N)C#N (centres undefined),inactive,

# (listing goes on)

Compound,Potency,"activity change, negative = inhibition"
Cc1ccc(S(=O)(=O)c2nc(-c3ccccc3Br)oc2N(C)C)cc1,inactive,
CCCCCCOC(=O)C(C#N)c1nc2ccccc2nc1N1CCOCC1 (centres undefined),"inconclusive: 35.5 µM [inhibitor, partial curve, poor fit]",
Cc1ccc(NC(=O)Cn2cnc3sc(C)c(S(=O)(=O)N4CCN(c5ncccn5)CC4)c3c2=O)cc1F,"inconclusive: 0.355 µM [inhibitor, full curve]",
Cc1ccc(NCC(=O)Nc2ccc(F)c(Cl)c2)cc1S(=O)(=O)N1CCOCC1,"inconclusive: 44.7 µM [inhibitor, partial curve]",
Cc1cc(OCC(=O)OCC(=O)N(Cc2ccccc2)C(C)(C)C)ccc1Cl,inactive,
COc1cc(C(=S)N2CCOCC2)ccc1OS(=O)(=O)c1ccccc1[N+](=O)[O-],,inconclusive: -3.9% [inhibitor]
Cc1c(NC(=S)N/N=C/c2cc([N+](=O)[O-])ccc2O)c(=O)n(-c2ccccc2)n1C,inactive,
N/C(=N\OC(=O)c1ccc2c(c1)OCO2)c1ccc(Cl)cc1,"inconclusive: 7.94 µM [inhibitor, partial curve]",
CCCc1cc(C(=O)N2CCN(C(c3ccccc3)c3ccccc3)CC2)no1,"inconclusive: 35.5 µM [inhibitor, partial curve, poor fit]",
CCc1nnc(NS(=O)(=O)c2ccc(NC(=S)NC(=O)c3ccc(Br)cc3)cc2)s1,inactive,
CC(C)c1ccc(NC(=O)CNS(=O)(=O)c2ccc(F)cc2)cc1,"inconclusive: 15.8 µM [inhibitor, partial curve]",
COC(=O)c1c(NC(=O)C(=O)N2CCOCC2)sc2c1CCC2,inactive,
COc1ccc(Cl)cc1Nc1ncnc2c1nc1n2CCCC1,"inconclusive: 12.6 µM [inhibitor, partial curve, poor fit]",
CC(C)CCNC(=O)Cn1cc2c(n1)CCCCC2,"inconclusive: 50.1 µM [inhibitor, partial curve, poor fit]",
CN1C=CC=C/C1=C1/SC(=S)N(Cc2ccccc2)C1=O,inactive,
CNC(=O)Nc1ccccc1F,inactive,
C=C1C(=O)O[C@H]2C[C@]3(C)C([C@@H](OC(=O)/C(C)=C/C)[C@H]12)[C@](C)(O)CC[C@H]3O (some centres undefined),inactive,
Cc1ccc(NC(=O)c2sc3nc(-c4ccc(F)cc4)cn3c2C)c(C)c1,inactive,
CCN1C(=O)[C@H]2[C@@H](c3ccc(-c4ccccc4)cc3)N3CCCC[C@@]3(C(=O)OC)[C@H]2C1=O,"inconclusive: 50.1 µM [inhibitor, partial curve, poor fit]",
O=C(Nn1cnc2ccccc2c1=O)c1ccc(Br)cc1,"inconclusive: 0.631 µM [inhibitor, full curve, poor fit]",
COc1ccc(C(=O)C(=NNc2ccccc2)c2ccc(OC)cc2)cc1,"inconclusive: 0.631 µM [inhibitor, full curve, poor fit]",
CCCOc1ccc(-c2nn(-c3ccccc3)cc2/C=C2\SC(=S)N(C3CCS(=O)(=O)C3)C2=O)cc1 (centres undefined),"inconclusive: 5.62 µM [inhibitor, partial curve, poor fit]",

Compound,Potency,"activity change, negative = inhibition"
CCCNC(=O)C1CN(S(=O)(=O)c2ccccc2)CCN1S(=O)(=O)c1ccccc1 (centres undefined),"inconclusive: 3.55 µM [inhibitor, partial curve]",
COc1ccccc1N(CC(=O)NCCSCc1ccc(Cl)cc1)S(C)(=O)=O,"inconclusive: 0.891 µM [inhibitor, full curve, poor fit]",
CN(Cc1ccccc1)c1ncnc2c1nc1n2CCCC1,"inconclusive: 56.2 µM [inhibitor, partial curve, poor fit]",
CCCCCCn1c(=O)n2n(c1=O)[C@@H]1CN(S(=O)(=O)c3ccc(C)cc3)C[C@]1(O)[C@@H](OC(=O)NCc1ccc(OC)c(OC)c1)C2,inactive,
O=C(CNC(=O)c1ccc(N2CCCC2=O)cc1)Nc1ccc(F)c(F)c1F,"inconclusive: 35.5 µM [inhibitor, single point]",
CCc1c(C)nc2nncn2c1Nc1ccc(C)c(F)c1,inactive,
Cc1cc(-c2ccc(C)c(S(=O)(=O)NCc3ccc(Cl)cc3)c2)on1,"inconclusive: 3.55 µM [inhibitor, full curve, poor fit]",
Oc1ccc(-c2csc(-c3cccnc3)n2)cc1O,inactive,
O=C1/C(=C/Nc2ccc3c(c2)OCO3)CCc2ccccc21,"inconclusive: 31.6 µM [inhibitor, partial curve]",
O=C(NC1CCCCC1)c1cccc2c1C(=O)c1ccc(N3CCCC3)cc1S2(=O)=O,"inconclusive: 31.6 µM [inhibitor, partial curve, poor fit]",
COc1cccc(NC(CNS(=O)(=O)c2ccc(C)cc2)c2ccccc2)c1 (centres undefined),inactive,
CCOC(=O)c1c(C)[nH]c(C)c1S(=O)(=O)N1CCC(C(=O)Nc2ccccn2)CC1,"inconclusive: 50.1 µM [inhibitor, partial curve]",
CCn1c(N)c(C(=O)NCCCOC)sc1=S,inactive,
O=C(CCn1c(=O)c2ccccc2n(Cc2cccc([N+](=O)[O-])c2)c1=O)N1CCc2ccccc2C1,inactive,
Cc1ccc(-c2noc(C3CCN(S(=O)(=O)c4ccc5c(c4)OCCO5)CC3)n2)o1,"inconclusive: 28.2 µM [inhibitor, partial curve]",
CC[C@@H](NCCCn1ccc(NC(=O)OCc2ccccc2)nc1=O)c1ccccc1,"inconclusive: 0.355 µM [inhibitor, full curve]",
O=C(N/N=C/c1sc(=O)[nH]c1-[n+]1ccc2ccccc2c1)c1ccccc1[O-],inactive,
COc1ccc(NC2CCCN(C(=O)C3(C)CCCCC3)C2)cc1OC (centres undefined),"inconclusive: 44.7 µM [inhibitor, partial curve, poor fit]",
Cc1sc(NC(=O)c2ccco2)c(C(c2ccc(F)cc2)N2CCN(C)CC2)c1C (centres undefined),"inconclusive: 17.8 µM [inhibitor, partial curve]",
CC(=O)Nc1ccc(S(=O)(=O)/N=C2\C(=O)c3ccccc3C([O-])=C2n2cc[n+](-c3ccccn3)c2)cc1,active: 25.1 µM,
